# Results of single-concentration screens

By UniProt entry, the sequences of proteins in these tests, tags left out. Residues count along the entry.
UniProt P9WFT3, whole entry: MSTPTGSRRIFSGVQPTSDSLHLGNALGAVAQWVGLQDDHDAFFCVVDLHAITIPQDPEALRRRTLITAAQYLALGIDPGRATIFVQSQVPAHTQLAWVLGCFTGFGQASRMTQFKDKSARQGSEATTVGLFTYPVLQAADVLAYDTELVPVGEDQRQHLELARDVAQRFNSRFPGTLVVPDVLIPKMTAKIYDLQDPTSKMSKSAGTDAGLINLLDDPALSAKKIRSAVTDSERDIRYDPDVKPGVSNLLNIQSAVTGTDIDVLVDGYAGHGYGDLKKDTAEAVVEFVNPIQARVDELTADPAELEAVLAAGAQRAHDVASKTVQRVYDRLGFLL
UniProt A4I591, 1-473: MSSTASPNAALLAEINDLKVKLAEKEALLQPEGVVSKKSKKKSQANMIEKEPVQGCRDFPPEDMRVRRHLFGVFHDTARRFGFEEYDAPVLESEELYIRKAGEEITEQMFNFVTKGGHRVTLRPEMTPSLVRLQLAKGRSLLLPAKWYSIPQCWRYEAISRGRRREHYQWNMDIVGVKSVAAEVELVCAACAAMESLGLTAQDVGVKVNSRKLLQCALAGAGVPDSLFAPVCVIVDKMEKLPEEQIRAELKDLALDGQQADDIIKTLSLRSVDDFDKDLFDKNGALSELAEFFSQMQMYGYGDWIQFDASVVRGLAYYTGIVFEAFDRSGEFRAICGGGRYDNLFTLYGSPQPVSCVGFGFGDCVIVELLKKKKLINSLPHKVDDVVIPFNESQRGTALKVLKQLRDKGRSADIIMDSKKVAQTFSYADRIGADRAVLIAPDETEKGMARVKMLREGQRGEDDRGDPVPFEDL

Data taken from ChEMBL document CHEMBL3988442, “University of Dundee, Small-Polar-MMV Screening Library” (2021).

MtTrpRS: 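Tryptophan-tRNA ligase, Mycobacterium tuberculosis (UniProt P9WFT3). Enzyme assay of tryptophanyl-tRNA synthetase; the read-out is not stated. Compounds at 10 µM. Higher most likely means stronger inhibition; the record gives no direction and few retests gave an IC50. Of about 65,000 compounds tested this way, about 64 (0.098%) reached 50% or more in at least one test.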
LiHisRS: 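Enzyme assay of histidyl-tRNA synthetase; the read-out is not stated. Target: Histidine-tRNA ligase, Leishmania infantum (UniProt A4I591). Compounds at 30 µM. Higher reads as stronger inhibition (inferred: compounds with an IC50 in retests scored well above the rest). The assay is labelled LdHisRS but filed under L. infantum. Size under these conditions: about 69,000 compounds, about 410 of them at 50% or above in at least one test.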

Each number is a percent effect as filed. The record does not define 0% and 100%; most values in the screen are far below 50% and negative numbers occur (in some assays of this library far below -100). Compounds were drawn at random from those tested, without regard to their results.

Compound: Cc1cc2n(n1)CC(CNCc1ccc(-n3ccnc3C)nc1)CN2 (stereo unspecified)
MtTrpRS: -6.215
LiHisRS: 19.64

Compound: COc1cc(C)c(CNC(C)c2csc(C3CC3)n2)cc1OC (stereo unspecified)
MtTrpRS: -3.211
LiHisRS: 11.9

Compound: Cc1cc(C)c(CNC(=O)NCc2nnc3n2CCCCC3)c(=O)[nH]1
MtTrpRS: -1.3
LiHisRS: 2.74

Compound: COc1ccc(Cl)cc1S(=O)(=O)N(C)CC(=O)Nc1ccon1
MtTrpRS: -0.4881
LiHisRS: 4.918

Compound: O=S(=O)(NC1CCC12CCN(CC1CC1)CC2)c1ccccc1 (stereo unspecified)
MtTrpRS: -1.402
LiHisRS: 6.897

Compound: COc1ccccc1OCCC(=O)N1CCCC1Cn1cc(C)cn1 (stereo unspecified)
MtTrpRS: 0.86
LiHisRS: 13.33

Compound: Cc1cc(N2CCCC(OC(=O)CCN3CCCC3=O)C2)nc(C)n1 (stereo unspecified)
MtTrpRS: 4.586
LiHisRS: 12.68

Compound: CCCc1cc(C(=O)N2CCOC(c3nc(-c4cccs4)no3)C2)no1 (stereo unspecified)
MtTrpRS: 2.417
LiHisRS: 11.43

Compound: COCC(=O)N1CCN(C(=O)NC(C)C)CC2(CC(=O)N(C)C2)C1 (stereo unspecified)
MtTrpRS: 2.905
LiHisRS: 12.82

Compound: CCOc1ccc(N(CCC#N)C(=O)c2ccc(SC)nc2)cc1
MtTrpRS: -5.576
LiHisRS: 6.579

Compound: CN1C(=O)C2(CCN(Cc3nccn3C)CC2)c2ccccc21
MtTrpRS: -4.931
LiHisRS: 7.767

Compound: COc1c(C)cnc(CN2CCC(N(C)C(=O)C(C)OC)CC2)c1C (stereo unspecified)
MtTrpRS: 12.91
LiHisRS: 19.23

Compound: CN1CCc2nc(C3CCN(C(=O)CCC4CCCC4)CC3)ncc2C1
MtTrpRS: -1.41
LiHisRS: -38.69

Compound: O=C(CN1CCOCC1)N(c1ccccc1)c1ccccc1
MtTrpRS: 2.313
LiHisRS: 7.08

Compound: Cc1ccc(-c2nc(CNCC3CN(C)CCO3)co2)cc1 (stereo unspecified)
MtTrpRS: -5.951
LiHisRS: 14.29

Compound: Cc1ccc(CNc2ccn(CCC(N)=O)n2)c(Br)c1
MtTrpRS: -1.891
LiHisRS: 1.961

Compound: CCCC(NC(=O)c1cscc1C)c1nnn[nH]1 (stereo unspecified)
MtTrpRS: 2.534
LiHisRS: 16.96

Compound: CCN1CC[C@@]2(C(=O)N3CCCC3)CCN(S(C)(=O)=O)CC[C@@H]12
MtTrpRS: 5.901
LiHisRS: 21.36

Compound: CSc1ccc(C(C(=O)O)N2CCOCC2)cc1 (stereo unspecified)
MtTrpRS: 2.252
LiHisRS: 11.29

Compound: Cc1ccc(N(CCC#N)C(=O)CCc2cccnc2)cc1C
MtTrpRS: 0.7199
LiHisRS: 11.9

Compound: O=C(c1nnn(-c2ccc(F)cc2)n1)N(CCO)Cc1ccccc1
MtTrpRS: 0.08937
LiHisRS: 9.333

Compound: CC(C)COCC(NC(=O)CSc1nnc[nH]1)c1ccco1 (stereo unspecified)
MtTrpRS: 0.3632
LiHisRS: 21.05

Compound: Cc1nc(COC[C@@H]2CC[C@H]3[C@H](CCN3S(C)(=O)=O)O2)cs1
MtTrpRS: 0.6103
LiHisRS: -16.54

Compound: Cc1ccc(F)cc1S(=O)(=O)NCc1[nH]ncc1Br
MtTrpRS: -2.861
LiHisRS: 16.44

Compound: COC(=O)CC(c1cccc(OC(F)F)c1)c1oc(C)cc(=O)c1O (stereo unspecified)
MtTrpRS: 2.81
LiHisRS: 20.51

Some entries from above, unchanged:

Compound	MtTrpRS	LiHisRS
CC(C)COCC(NC(=O)CSc1nnc[nH]1)c1ccco1 (stereo unspecified)	0.3632	21.05
CCN1CC[C@@]2(C(=O)N3CCCC3)CCN(S(C)(=O)=O)CC[C@@H]12	5.901	21.36